# Results from one PubChem assay

The results are deposited in PubChem (AID1159506; NCATS, 2015).

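Genome-wide siRNA knockdown in TC32 Ewing sarcoma cells, comparing luciferase light from an NR0B1-promoter reporter with a CMV-promoter reporter 48 hours after transfection. Each siRNA was applied at 20 nM. A z-score of the log NR0B1-over-CMV signal, less the median of siRNAs with the same seed; more negative means a stronger specific loss of the NR0B1 reporter.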

This is part of the screen; most of the strongest results are not listed here. Sequences are the guide (antisense) strand, without overhang.

Result for UUCUGGACCAUGGAAGCAC against C1orf123 was seed-corrected z-score 0.1415. Result for UUUGCCCACAUAGGACUCC against POTEKP was seed-corrected z-score -0.07314. UUUGCACAAACCAUUGUUU against UQCR10 read seed-corrected z-score 1.095. For ACUAAGAUGAGUAACACCG against OR2G6 the result was seed-corrected z-score -0.4013.

For UAAUGUUAGACGGUGACAC against MAMLD1 the result was seed-corrected z-score -0.5268. For UUUCUUACAGACAUGCCUC against LOC728327 the result was seed-corrected z-score -0.0771. Result for ACUAUAACAAUGAACAAGC against ALG10B was seed-corrected z-score 1.73. Result for AAUGACAACACGUCUAGUG against RNASE4 was seed-corrected z-score -0.4773.

UGAGGUCUCUUCUAUAGCC against FCRL2 gave seed-corrected z-score -0.9717. UUCCGUUCCUUUAGCAAGC against NEK2 read seed-corrected z-score 0.07731. UAAGUUUGGCUUCUAGCAG against BHLHA9 gave seed-corrected z-score 0.008836. For UAAGGUUACUGCAAGCAGC against COL1A2 the result was seed-corrected z-score 0.5203.

With AGCAUUACAAAGGACAGGC against CYP8B1 the assay gave seed-corrected z-score 0.02085. With UUUAGAUAAUCUUGGAUUG against FAM133A the assay gave seed-corrected z-score -0.03943. Result for UUACUGUCUGAGAUAAUCC against ARHGEF26 was seed-corrected z-score 0.7211. For UAGUUUGGUAUGCAAAUGG against C4orf17 the result was seed-corrected z-score 0.6684.

With AAAUUAAUUAGUAUGAGAG against CHCHD2P6 the assay gave seed-corrected z-score 0.3936. UAUUCUGUCAUCGAUAGGC against CCDC58P3 gave seed-corrected z-score 0.3878. For AUGCCUAUCAUGUCACGGC against DDX41 the result was seed-corrected z-score -0.5655. For UCAGGGAUCUCUCCAAGUC against TTC25 the result was seed-corrected z-score 0.9538.

Result for UCAUGGUCACAGCAAAUUC against DOK2 was seed-corrected z-score -0.7019. AAGUGCAUGAUGGAUAUCU against C5AR2 read seed-corrected z-score -0.2408. With UUAUCAAUGGAGACGAAGC against RNLS the assay gave seed-corrected z-score 0.6573. For UGGAGUUGUAGUAAGUUCC against TMPRSS6 the result was seed-corrected z-score -0.7491.

Result for UUCAUUAGGAAAGCUUUGG against RAB32 was seed-corrected z-score -0.492. AGUAUUAUAACCACCACCC against XK read seed-corrected z-score -0.4651. With UUGGUGAUAACGACAUCGU against TMEM98 the assay gave seed-corrected z-score 0.3669. AAUCCUCCAAGUACCAGCC against MYCT1 read seed-corrected z-score -0.2101.

Repeated from the top, 3 entries:

siRNA	target gene	seed-corrected z-score
UUCUGGACCAUGGAAGCAC	C1orf123	0.1415
UUUGCCCACAUAGGACUCC	POTEKP	-0.07314
UUUGCACAAACCAUUGUUU	UQCR10	1.095